PubChem BioAssay AID248 (DTP/NCI, 2004)
The list is a part of this screen's results and no random one: its compounds were picked by chemical class. Not every dose and run of a compound is shown. T/C: endpoint of the treated group in % of that of the vehicle group. For survival time, the PubChem record calls one and a half times the control and up active, and a quarter to a half above the control has no call in these data; cut-offs in other NCI protocols can differ. Some T/C values are marked as having no survivor count here; that says nothing about deaths at the dose. Schedules are NCI's codes, read here as Q, the interval in days (D) or hours (H), X, the number of doses. Some doses were run more than once; their values stand side by side, smallest first. Some schedules carry Z or #; the key to these is not given.

Tested on: L1210 leukemia ip in BDF1 mice, survival T/C
Assay: NCI In Vivo Anticancer Drug Screen. Data for tumor model L1210 Leukemia (intraperitoneal) in B6D2F1 (BDF1) mice
Conditions: T/C endpoint: mean survival time, higher T/C = longer survival

SMILES: ClCCNCCCNCCCl
- T/C (dose: 2.5 mg/kg/injection, schedule: Q#A X034 (ip), vehicle: saline): 105 % of control [survivor count not shown]
- T/C (dose: 5.0 mg/kg/injection, schedule: Q01DX017 (ip), vehicle: saline): 113 % of control [survivor count not shown]
- T/C (dose: 5.0 mg/kg/injection, schedule: Q02DX009 (ip), vehicle: saline): 104 % of control [survivor count not shown]
- T/C (dose: 5.0 mg/kg/injection, schedule: Q#A X034 (ip), vehicle: saline): 119 % of control [survivor count not shown]
- T/C (dose: 10.0 mg/kg/injection, schedule: Q01DX017 (ip), vehicle: saline): 126 % of control [survivor count not shown]
- T/C (dose: 10.0 mg/kg/injection, schedule: Q01DX Z (ip), vehicle: saline): 101 [survivor count not shown] and 116 % of control [survivor count not shown]
- T/C (dose: 10.0 mg/kg/injection, schedule: Q02DX009 (ip), vehicle: saline): 111 % of control [survivor count not shown]
- T/C (dose: 10.0 mg/kg/injection, schedule: Q#A X034 (ip), vehicle: saline): 130 % of control [survivor count not shown]
- T/C (dose: 12.5 mg/kg/injection, schedule: Q01DX Z (ip), vehicle: saline): 105 % of control [survivor count not shown]
- T/C (dose: 12.5 mg/kg/injection, schedule: Q01DX Z (oral), vehicle: saline): 122 % of control [survivor count not shown]
- T/C (dose: 16.0 mg/kg/injection, schedule: Q01DX Z (ip), vehicle: saline): 121 [survivor count not shown] and 130 % of control [survivor count not shown]
- T/C (dose: 20.0 mg/kg/injection, schedule: Q01DX017 (ip), vehicle: saline): 152 % of control [survivor count not shown]
- T/C (dose: 20.0 mg/kg/injection, schedule: Q02DX009 (ip), vehicle: saline): 138 % of control [survivor count not shown]
- T/C (dose: 20.0 mg/kg/injection, schedule: Q#A X034 (ip), vehicle: saline): 195 % of control [survivor count not shown]
- T/C (dose: 24.0 mg/kg/injection, schedule: Q01DX Z (ip), vehicle: saline): 128 [survivor count not shown], 134 [survivor count not shown], 138 % of control [survivor count not shown]
- T/C (dose: 25.0 mg/kg/injection, schedule: Q01DX Z (ip), vehicle: saline): 129 % of control [survivor count not shown]
- T/C (dose: 25.0 mg/kg/injection, schedule: Q01DX Z (oral), vehicle: saline): 135 % of control [survivor count not shown]
- T/C (dose: 36.0 mg/kg/injection, schedule: Q01DX Z (ip), vehicle: saline): 137 [survivor count not shown], 140 [survivor count not shown], 176 % of control [survivor count not shown]
- T/C (dose: 40.0 mg/kg/injection, schedule: Q01DX017 (ip), vehicle: saline): 175 % of control [survivor count not shown]
- T/C (dose: 40.0 mg/kg/injection, schedule: Q02DX009 (ip), vehicle: saline): 184 % of control [survivor count not shown]
- T/C (dose: 40.0 mg/kg/injection, schedule: Q#A X034 (ip), vehicle: saline): 93 % of control [survivor count not shown]
- T/C (dose: 50.0 mg/kg/injection, schedule: Q01DX001 (ip), vehicle: saline): 108 [survivor count not shown] and 110 % of control [survivor count not shown]
- T/C (dose: 50.0 mg/kg/injection, schedule: Q01DX Z (ip), vehicle: saline): 224 % of control [survivor count not shown]
- T/C (dose: 50.0 mg/kg/injection, schedule: Q01DX Z (oral), vehicle: saline): 186 % of control [survivor count not shown]
- T/C (dose: 54.0 mg/kg/injection, schedule: Q01DX Z (ip), vehicle: saline): 181 % of control [survivor count not shown]
- T/C (dose: 80.0 mg/kg/injection, schedule: Q01DX017 (ip), vehicle: saline): 119 % of control [survivor count not shown]
- T/C (dose: 80.0 mg/kg/injection, schedule: Q02DX009 (ip), vehicle: saline): 187 % of control [survivor count not shown]
- T/C (dose: 81.0 mg/kg/injection, schedule: Q01DX Z (ip), vehicle: saline): 90 % of control [survivor count not shown]
- T/C (dose: 100.0 mg/kg/injection, schedule: Q01DX001 (ip), vehicle: saline): 125 [survivor count not shown] and 142 % of control [survivor count not shown]
- T/C (dose: 100.0 mg/kg/injection, schedule: Q01DX Z (ip), vehicle: saline): 112 % of control [survivor count not shown]
- T/C (dose: 100.0 mg/kg/injection, schedule: Q01DX Z (oral), vehicle: saline): 111 % of control [survivor count not shown]
- T/C (dose: 160.0 mg/kg/injection, schedule: Q02DX009 (ip), vehicle: saline): 91 % of control [survivor count not shown]
- T/C (dose: 200.0 mg/kg/injection, schedule: Q01DX001 (ip), vehicle: saline): 136 [survivor count not shown] and 147 % of control [survivor count not shown]

SMILES: N#CC(C#N)=Cc1ccccc1
- T/C (dose: 1.57 mg/kg/injection, schedule: Q01DX009 (ip), vehicle: Klucel (hydroxypropylcellulose) (HPC)): 105 % of control [survivor count not shown]
- T/C (dose: 1.57 mg/kg/injection, schedule: Q04DX003 (ip), vehicle: Klucel (hydroxypropylcellulose) (HPC)): 123 % of control [survivor count not shown]
- T/C (dose: 3.13 mg/kg/injection, schedule: Q01DX009 (ip), vehicle: Klucel (hydroxypropylcellulose) (HPC)): 110 % of control [survivor count not shown]
- T/C (dose: 3.13 mg/kg/injection, schedule: Q04DX003 (ip), vehicle: Klucel (hydroxypropylcellulose) (HPC)): 113 % of control [survivor count not shown]
- T/C (dose: 6.25 mg/kg/injection, schedule: Q01DX009 (ip), vehicle: Klucel (hydroxypropylcellulose) (HPC)): 95 [survivor count not shown] and 105 % of control [survivor count not shown]
- T/C (dose: 6.25 mg/kg/injection, schedule: Q04DX003 (ip), vehicle: Klucel (hydroxypropylcellulose) (HPC)): 108 % of control [survivor count not shown]
- T/C (dose: 12.5 mg/kg/injection, schedule: Q01DX009 (ip), vehicle: Klucel (hydroxypropylcellulose) (HPC)): 94 [survivor count not shown] and 113 % of control [survivor count not shown]
- T/C (dose: 12.5 mg/kg/injection, schedule: Q04DX003 (ip), vehicle: Klucel (hydroxypropylcellulose) (HPC)): 111 % of control [survivor count not shown]
- T/C (dose: 25.0 mg/kg/injection, schedule: Q01DX009 (ip), vehicle: Klucel (hydroxypropylcellulose) (HPC)): 94 % of control [survivor count not shown]
- T/C (dose: 50.0 mg/kg/injection, schedule: Q01DX001 (ip), vehicle: other): 104 % of control [survivor count not shown]
- T/C (dose: 100.0 mg/kg/injection, schedule: Q01DX001 (ip), vehicle: other): 102 % of control [survivor count not shown]
- T/C (dose: 100.0 mg/kg/injection, schedule: Q04DX003 (ip), vehicle: Klucel (hydroxypropylcellulose) (HPC)): 93 % of control [survivor count not shown]
- T/C (dose: 200.0 mg/kg/injection, schedule: Q04DX003 (ip), vehicle: Klucel (hydroxypropylcellulose) (HPC)): 93 % of control [survivor count not shown]

SMILES: CN1C2CCC(OC(=O)C(O)(c3ccccc3)C3CCCC3)C1CC2 (stereo not drawn)
- T/C (dose: 75.0 mg/kg/injection, schedule: Q04DX002 (ip), vehicle: saline with Tween-80): 102 % of control [survivor count not shown]
- T/C (dose: 150.0 mg/kg/injection, schedule: Q04DX002 (ip), vehicle: saline with Tween-80): 102 % of control [survivor count not shown]
- T/C (dose: 300.0 mg/kg/injection, schedule: Q04DX002 (ip), vehicle: saline with Tween-80): 94 % of control [survivor count not shown]

SMILES: CN(C)C1CCCCC(OC(=O)C(O)(c2ccccc2)c2ccccc2)C1 (stereo not drawn)
- T/C (dose: 9.5 mg/kg/injection, schedule: Q01DX001 (ip), vehicle: other): 100 % of control [survivor count not shown]
- T/C (dose: 19.0 mg/kg/injection, schedule: Q01DX001 (ip), vehicle: other): 105 % of control [survivor count not shown]
- T/C (dose: 38.0 mg/kg/injection, schedule: Q01DX001 (ip), vehicle: other): 98 % of control [survivor count not shown]
- T/C (dose: 75.0 mg/kg/injection, schedule: Q01DX001 (ip), vehicle: other): 89 % of control [survivor count not shown]
